Data on 38 compounds can be found in the supplement of paper PMC4256282, “Profound Activity of the Anti-cancer Drug Bortezomib against Echinococcus multilocularis Metacestodes Identifies the Proteasome as a Novel Drug Target for Cestodes” (PLoS Neglected Tropical Diseases, 2014).

Structures can show the parent of a compound that is named as a salt. The list shows a part of the results. Single values are uncertain, as repeats are few or missing.

This test concerns Echinococcus multilocularis metacestodes. As to the kind of experiment: vesicle damage (PGI release) relative to positive control DB1127 at 20 µM, DMSO subtracted; higher = more parasite damage. The conditions noted are these: treatment time 5 days.
Regarding `CC(=O)O[C@]1(C(C)=O)CC[C@H]2[C@@H]3C=C(C)C4=CC(=O)CC[C@]4(C)[C@H]3CC[C@@]21C` [Megestrol Acetate], the vesicle damage was -3.12%.
For `CNC(=C[N+](=O)[O-])NCCSCc1ccc(CN(C)C)o1` [Ranitidine Hydrochloride] the value was -14%; for `COc1cc2c(cc1O)CC[C@@H]1[C@@H]2CC[C@]2(C)[C@@H](O)CC[C@@H]12` [2-Methoxyestradiol], -0.722%.
Regarding `C[C@H]1C[C@@H]2[C@H]([C@@H](O)C[C@@]3(C)[C@H]2CC[C@]3(O)C(=O)CO)[C@@]2(C)C=CC(=O)C=C12` [Methylprednisolone], the vesicle damage is -11%.
For `CCOC(=O)c1ccc(C#Cc2ccc3c(c2)C(C)(C)CCS3)nc1` [Tazarotene] the value was -1.13%; for `Cc1ccc(O)c([C@H](CCN(C(C)C)C(C)C)c2ccccc2)c1` [Tolterodine tartrate], 0.121%; for `CCN(CC)CC#CCOC(=O)C(O)(c1ccccc1)C1CCCCC1` (stereo not drawn) [Oxybutynin], -12.9%.
In the case of `CC(=O)Oc1ccccc1C(=O)Nc1ncc([N+](=O)[O-])s1` [Nitazoxanide], the vesicle damage was 61.7%.
As to `COc1ccccc1OCC(O)CO` (stereo not drawn) [Guaifenesin], the vesicle damage was -7.65%.
With `CC(C(=O)O)c1ccc(-c2ccccc2)c(F)c1` (stereo not drawn) [Flurbiprofen] the figure was -1.29%; with `CC(c1cc2ccccc2s1)N(O)C(N)=O` (stereo not drawn) [Zileuton], -2.85%.
For `C[C@]12C=CC(=O)C=C1CC[C@H]1[C@@H]3C[C@@H](O)[C@](O)(C(=O)CO)[C@@]3(C)C[C@H](O)[C@@]12F` [Triamcinolone] the value was -9.45%; for `O=C1N=C(O)NC1(c1ccccc1)c1ccccc1` [Phenytoin sodium], 4.93%; for `C[C@]12CC[C@@H]3c4ccc(O)cc4C[C@@H](CCCCCCCCC[S+]([O-])CCCC(F)(F)C(F)(F)F)[C@H]3[C@@H]1CC[C@@H]2O` (stereo partly drawn) [Fulvestrant], -0.361%.
Consider `O=P(O)(O)C(O)(Cc1cccnc1)P(=O)(O)O` [Risedronate sodium], for which the vesicle damage is -4.26%.
For the compound `Nc1nc(F)nc2c1ncn2[C@@H]1O[C@H](COP(=O)(O)O)[C@@H](O)[C@@H]1O` [Fludarabine Phosphate], the vesicle damage was 2.09%.
With `COCCOC(=O)C1=C(C)NC(C)=C(C(=O)OC/C=C/c2ccccc2)C1c1cccc([N+](=O)[O-])c1` (stereo not drawn) [Cilnidipine] the figure was -6.38%.
For the compound `Nc1nc(F)nc2c1ncn2[C@@H]1O[C@H](CO)[C@@H](O)[C@@H]1O` [Fludarabine], the vesicle damage was -4.18%.
With `C=CC[N+]1([C@H]2C[C@H]3[C@@H]4CC[C@H]5C[C@H](O)[C@@H](N6CCOCC6)C[C@]5(C)[C@H]4CC[C@]3(C)[C@H]2OC(C)=O)CCCC1` [Rocuronium bromide] the figure was -1.71%; with `Cc1ccc(NC(=O)c2ccc(CN3CCN(C)CC3)cc2)cc1Nc1nccc(-c2cccnc2)n1` [Imatinib Mesylate], -3.05%.
For `CC1=C(CC(=O)O)c2cc(F)ccc2/C1=C\c1ccc([S+](C)[O-])cc1` (stereo not drawn) [Sulindac] the value was 0.946%; for `O=NN(CCCl)C(=O)NC1CCCCC1` [Lomustine], -9.19%; for `Nc1[nH]cnc2ncnc1-2` [Adenine], 1.74%.
For `C[C@H]1O[C@H](O[C@H]2[C@H](O)[C@@H](O)[C@@H](O[C@H]3[C@H](O)[C@@H](O)C(O)O[C@@H]3CO)O[C@@H]2CO)[C@H](O)[C@@H](O)[C@@H]1N[C@H]1C=C(CO)[C@@H](O)[C@H](O)[C@H]1O` (stereo partly drawn) [Acarbose] the value was 1.45%; for `C#Cc1cccc(Nc2ncnc3cc(OCCOC)c(OCCOC)cc23)c1` [Erlotinib HCl], -4.28%; for `CC1(C)O[C@@H]2[C@@H](CO[C@@]3(COS(N)(=O)=O)OC(C)(C)O[C@@H]23)O1` [Topiramate], -0.345%.
In the case of `O=C1NC(=O)C(c2ccccc2)(c2ccccc2)N1` [Phenytoin], the vesicle damage is 0.483%.
With `CC[C@]1(O)C[C@H]2CN(CCc3c([nH]c4ccccc34)[C@@](C(=O)OC)(c3cc4c(cc3OC)N(C=O)[C@H]3[C@@](O)(C(=O)OC)[C@H](OC(C)=O)[C@]5(CC)C=CCN6CC[C@]43[C@@H]65)C2)C1` [Vincristine Sulfate] the figure was 1.82%.
With `O=S(=O)(O)CCS` [Mesna] the figure was -11.9%.
With `CCn1cc(C(=O)O)c(=O)c2cc(F)c(N3CCNC(C)C3)c(F)c21` (stereo not drawn) [Lomefloxacin hydrochloride] the figure was 2.35%; with `C[C@]12CC[C@@H]3c4ccc(O)cc4CC[C@H]3[C@@H]1CCC2=O` [Estrone], 0.898%; with `NC(CO)C(=O)NNCc1ccc(O)c(O)c1O` (stereo not drawn) [Benserazide hydrochloride], 4.48%.
In the case of `CN(C)CCc1c[nH]c2ccc(Cn3cncn3)cc12` [Rizatriptan Benzoate], the vesicle damage is -3.16%.
For `COc1cc2nc(N(C)CCCNC(=O)C3CCCO3)nc(N)c2cc1OC` (stereo not drawn) [Alfuzosin HCL] the value was -2.66%; for `Cn1c(=O)c2[nH]cnc2n(C)c1=O` [Aminophylline], -2.47%; for `CCN[C@H]1C[C@H](C)S(=O)(=O)c2sc(S(N)(=O)=O)cc21` [Dorzolamide HCL], -1.6%.
In the case of `COC(=O)[C@H]1[C@H]2C[C@@H]3c4[nH]c5cc(OC)ccc5c4CCN3C[C@H]2C[C@@H](OC(=O)c2cc(OC)c(OC)c(OC)c2)[C@@H]1OC` [Reserpine], the vesicle damage came out at 0.83%.
Consider `CN(C)[C@@H]1C(O)=C(C(N)=O)C(=O)[C@@]2(O)C(O)=C3C(=O)c4c(O)cccc4[C@@](C)(O)[C@H]3[C@H](O)[C@@H]12` [Oxytetracycline], for which the vesicle damage is -8.74%.
